# Source: the M2OR odorant receptor database
# Chains of the proteins cited; added tags and fusions are not shown. Chains listed by the source or under a name are the forms on record and can include a tag or linker.
# OR1A1 G152A, as listed by the source, stated change not applied: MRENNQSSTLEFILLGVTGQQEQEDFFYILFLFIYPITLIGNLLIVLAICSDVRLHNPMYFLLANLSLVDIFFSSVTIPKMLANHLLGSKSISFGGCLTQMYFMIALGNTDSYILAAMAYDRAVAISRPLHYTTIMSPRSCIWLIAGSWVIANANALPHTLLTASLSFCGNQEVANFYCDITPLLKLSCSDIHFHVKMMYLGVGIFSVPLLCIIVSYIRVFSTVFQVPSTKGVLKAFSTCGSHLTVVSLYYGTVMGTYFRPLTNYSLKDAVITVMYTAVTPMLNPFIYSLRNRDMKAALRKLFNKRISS
# OR1A1 T280M, as listed by the source, stated change not applied: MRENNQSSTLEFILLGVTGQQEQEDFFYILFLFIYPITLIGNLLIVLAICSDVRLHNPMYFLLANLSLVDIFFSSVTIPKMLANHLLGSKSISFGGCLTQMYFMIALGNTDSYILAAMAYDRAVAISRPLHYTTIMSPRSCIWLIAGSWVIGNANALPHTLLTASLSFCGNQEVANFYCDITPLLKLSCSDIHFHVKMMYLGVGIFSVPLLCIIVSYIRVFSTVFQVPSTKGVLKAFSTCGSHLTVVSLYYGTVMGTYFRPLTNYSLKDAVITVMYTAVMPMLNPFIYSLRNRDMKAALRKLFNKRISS
# OR1A1 T280F, as listed by the source, stated change not applied: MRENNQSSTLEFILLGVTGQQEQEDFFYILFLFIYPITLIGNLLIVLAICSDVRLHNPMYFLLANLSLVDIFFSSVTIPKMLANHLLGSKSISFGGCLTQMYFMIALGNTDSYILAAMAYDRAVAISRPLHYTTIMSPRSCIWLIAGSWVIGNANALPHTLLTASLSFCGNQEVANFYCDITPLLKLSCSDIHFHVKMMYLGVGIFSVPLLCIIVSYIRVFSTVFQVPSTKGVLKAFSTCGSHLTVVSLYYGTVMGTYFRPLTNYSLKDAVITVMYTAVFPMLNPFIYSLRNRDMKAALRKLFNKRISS
# OR1A1 S248F, as listed by the source, stated change not applied: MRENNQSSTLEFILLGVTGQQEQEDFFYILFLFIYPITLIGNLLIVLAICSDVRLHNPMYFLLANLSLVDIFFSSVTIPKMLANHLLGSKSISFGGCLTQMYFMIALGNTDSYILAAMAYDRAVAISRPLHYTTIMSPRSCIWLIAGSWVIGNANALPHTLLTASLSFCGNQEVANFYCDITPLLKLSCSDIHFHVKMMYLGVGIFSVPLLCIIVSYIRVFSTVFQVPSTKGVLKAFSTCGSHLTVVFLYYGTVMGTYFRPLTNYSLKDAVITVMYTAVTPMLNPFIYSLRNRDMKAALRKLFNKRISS
# OR1A1 Y250F, as listed by the source, stated change not applied: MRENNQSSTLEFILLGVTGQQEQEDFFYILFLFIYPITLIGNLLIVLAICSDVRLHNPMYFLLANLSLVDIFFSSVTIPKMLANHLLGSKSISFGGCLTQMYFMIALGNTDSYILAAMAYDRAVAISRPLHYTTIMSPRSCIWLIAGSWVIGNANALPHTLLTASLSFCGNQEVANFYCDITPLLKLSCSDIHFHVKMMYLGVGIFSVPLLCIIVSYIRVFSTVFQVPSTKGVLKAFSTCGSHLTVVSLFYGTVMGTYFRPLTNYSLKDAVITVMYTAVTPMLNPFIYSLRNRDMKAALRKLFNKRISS
# OR1A1 S112A, as listed by the source, stated change not applied: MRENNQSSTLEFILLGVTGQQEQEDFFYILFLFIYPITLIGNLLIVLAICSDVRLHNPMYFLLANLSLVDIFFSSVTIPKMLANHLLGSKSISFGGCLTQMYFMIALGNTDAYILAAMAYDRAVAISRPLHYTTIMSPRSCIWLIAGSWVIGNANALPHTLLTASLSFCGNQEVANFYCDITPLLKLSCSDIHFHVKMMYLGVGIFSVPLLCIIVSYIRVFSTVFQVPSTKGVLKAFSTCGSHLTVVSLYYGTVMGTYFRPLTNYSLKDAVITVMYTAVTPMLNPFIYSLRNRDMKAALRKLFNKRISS
# OR1A1 Y251F, as listed by the source, stated change not applied: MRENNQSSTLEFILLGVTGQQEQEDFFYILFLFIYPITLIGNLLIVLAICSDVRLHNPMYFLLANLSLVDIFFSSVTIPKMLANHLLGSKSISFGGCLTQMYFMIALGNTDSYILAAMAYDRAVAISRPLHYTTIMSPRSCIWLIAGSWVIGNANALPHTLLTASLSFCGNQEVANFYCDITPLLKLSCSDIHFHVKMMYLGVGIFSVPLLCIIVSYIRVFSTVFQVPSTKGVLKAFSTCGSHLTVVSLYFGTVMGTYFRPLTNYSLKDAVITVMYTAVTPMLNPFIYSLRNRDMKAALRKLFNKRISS
# OR1A1 Y258M, as listed by the source, stated change not applied: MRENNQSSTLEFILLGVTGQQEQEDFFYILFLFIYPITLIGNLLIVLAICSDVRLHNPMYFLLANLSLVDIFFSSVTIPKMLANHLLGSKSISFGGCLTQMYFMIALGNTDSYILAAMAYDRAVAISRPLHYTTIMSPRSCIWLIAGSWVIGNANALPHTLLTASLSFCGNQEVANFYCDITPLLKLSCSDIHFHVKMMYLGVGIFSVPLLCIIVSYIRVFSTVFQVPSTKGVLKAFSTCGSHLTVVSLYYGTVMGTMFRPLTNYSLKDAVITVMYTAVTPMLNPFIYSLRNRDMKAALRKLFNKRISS
# OR1A1 N155S, as listed by the source, stated change not applied: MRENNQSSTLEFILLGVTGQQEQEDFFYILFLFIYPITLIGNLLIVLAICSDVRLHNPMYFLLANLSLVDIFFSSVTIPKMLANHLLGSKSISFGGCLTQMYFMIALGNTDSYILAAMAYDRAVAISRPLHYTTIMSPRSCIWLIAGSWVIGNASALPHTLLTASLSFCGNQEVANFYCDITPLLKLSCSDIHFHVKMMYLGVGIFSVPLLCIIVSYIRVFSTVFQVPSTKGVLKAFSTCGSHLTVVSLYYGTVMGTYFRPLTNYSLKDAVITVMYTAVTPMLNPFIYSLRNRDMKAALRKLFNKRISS
# OR1A1 Y258F, as listed by the source, stated change not applied: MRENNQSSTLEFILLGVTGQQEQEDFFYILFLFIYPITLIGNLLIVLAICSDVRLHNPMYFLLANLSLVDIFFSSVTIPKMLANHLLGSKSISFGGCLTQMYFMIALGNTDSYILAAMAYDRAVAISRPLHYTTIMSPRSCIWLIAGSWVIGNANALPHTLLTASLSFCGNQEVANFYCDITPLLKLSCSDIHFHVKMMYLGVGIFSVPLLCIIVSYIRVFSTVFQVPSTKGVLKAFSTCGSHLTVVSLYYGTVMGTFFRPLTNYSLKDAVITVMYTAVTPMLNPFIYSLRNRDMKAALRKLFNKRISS
# OR1A1 T280A, as listed by the source, stated change not applied: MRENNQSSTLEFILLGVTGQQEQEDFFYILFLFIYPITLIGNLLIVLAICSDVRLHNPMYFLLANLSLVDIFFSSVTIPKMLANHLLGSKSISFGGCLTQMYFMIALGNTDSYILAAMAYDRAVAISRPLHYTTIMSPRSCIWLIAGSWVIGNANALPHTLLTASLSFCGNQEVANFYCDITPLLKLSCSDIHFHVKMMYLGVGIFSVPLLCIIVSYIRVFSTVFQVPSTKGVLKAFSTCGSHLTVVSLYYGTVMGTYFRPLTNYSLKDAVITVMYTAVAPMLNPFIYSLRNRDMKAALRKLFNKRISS
# OR1A1 N109K, as listed by the source, stated change not applied: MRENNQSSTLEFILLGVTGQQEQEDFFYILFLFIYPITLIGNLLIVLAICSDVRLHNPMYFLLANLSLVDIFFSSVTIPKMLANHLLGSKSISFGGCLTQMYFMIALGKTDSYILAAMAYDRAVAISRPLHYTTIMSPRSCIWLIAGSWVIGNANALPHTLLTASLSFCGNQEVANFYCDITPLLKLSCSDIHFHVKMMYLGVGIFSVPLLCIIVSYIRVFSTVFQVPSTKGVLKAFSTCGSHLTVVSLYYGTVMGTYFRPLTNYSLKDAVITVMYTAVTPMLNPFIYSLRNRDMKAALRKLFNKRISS
# OR1A1 Y251M, as listed by the source, stated change not applied: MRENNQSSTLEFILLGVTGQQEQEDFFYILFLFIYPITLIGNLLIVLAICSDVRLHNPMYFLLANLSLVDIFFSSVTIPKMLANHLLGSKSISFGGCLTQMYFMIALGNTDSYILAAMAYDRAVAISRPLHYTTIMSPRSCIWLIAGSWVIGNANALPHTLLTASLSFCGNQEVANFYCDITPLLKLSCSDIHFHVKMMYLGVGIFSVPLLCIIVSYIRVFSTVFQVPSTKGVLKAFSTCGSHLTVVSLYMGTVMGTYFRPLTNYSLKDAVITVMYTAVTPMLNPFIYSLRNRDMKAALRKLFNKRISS
# OR1A1 Y276L, as listed by the source, stated change not applied: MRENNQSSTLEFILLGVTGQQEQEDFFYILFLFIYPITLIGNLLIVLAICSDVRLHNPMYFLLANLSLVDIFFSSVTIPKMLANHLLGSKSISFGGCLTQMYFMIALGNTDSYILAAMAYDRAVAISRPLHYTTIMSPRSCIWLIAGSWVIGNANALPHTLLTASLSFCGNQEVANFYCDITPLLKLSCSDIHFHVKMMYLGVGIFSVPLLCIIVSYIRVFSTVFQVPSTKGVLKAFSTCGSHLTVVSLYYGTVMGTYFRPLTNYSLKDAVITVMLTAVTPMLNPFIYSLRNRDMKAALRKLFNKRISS
# OR1A1 T277M, as listed by the source, stated change not applied: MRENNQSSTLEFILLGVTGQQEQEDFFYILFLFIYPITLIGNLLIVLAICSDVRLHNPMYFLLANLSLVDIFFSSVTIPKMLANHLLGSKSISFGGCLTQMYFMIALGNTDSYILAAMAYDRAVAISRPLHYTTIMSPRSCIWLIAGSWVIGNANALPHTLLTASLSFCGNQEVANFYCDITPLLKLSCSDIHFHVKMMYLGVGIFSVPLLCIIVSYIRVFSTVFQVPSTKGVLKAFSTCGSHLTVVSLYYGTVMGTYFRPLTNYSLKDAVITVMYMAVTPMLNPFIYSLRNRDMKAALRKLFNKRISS
# OR1A1 Y276F, as listed by the source, stated change not applied: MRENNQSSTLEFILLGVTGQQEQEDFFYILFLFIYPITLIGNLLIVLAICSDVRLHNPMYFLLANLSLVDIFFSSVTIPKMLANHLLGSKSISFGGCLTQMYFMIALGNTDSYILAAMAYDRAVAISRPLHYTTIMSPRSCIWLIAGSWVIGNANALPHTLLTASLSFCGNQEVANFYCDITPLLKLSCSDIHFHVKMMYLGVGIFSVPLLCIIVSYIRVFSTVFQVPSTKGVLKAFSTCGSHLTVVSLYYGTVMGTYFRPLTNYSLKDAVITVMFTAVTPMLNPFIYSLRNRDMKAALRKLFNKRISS
# OR1A1, as listed by the source: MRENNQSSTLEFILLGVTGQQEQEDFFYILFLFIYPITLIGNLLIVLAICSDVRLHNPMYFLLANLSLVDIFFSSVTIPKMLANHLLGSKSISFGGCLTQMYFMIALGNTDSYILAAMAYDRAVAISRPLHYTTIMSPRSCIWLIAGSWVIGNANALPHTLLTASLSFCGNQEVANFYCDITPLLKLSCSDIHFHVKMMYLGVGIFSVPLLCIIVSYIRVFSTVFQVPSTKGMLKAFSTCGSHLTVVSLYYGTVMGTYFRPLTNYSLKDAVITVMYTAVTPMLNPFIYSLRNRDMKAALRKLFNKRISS
# OR1A1 I205V, as listed by the source, stated change not applied: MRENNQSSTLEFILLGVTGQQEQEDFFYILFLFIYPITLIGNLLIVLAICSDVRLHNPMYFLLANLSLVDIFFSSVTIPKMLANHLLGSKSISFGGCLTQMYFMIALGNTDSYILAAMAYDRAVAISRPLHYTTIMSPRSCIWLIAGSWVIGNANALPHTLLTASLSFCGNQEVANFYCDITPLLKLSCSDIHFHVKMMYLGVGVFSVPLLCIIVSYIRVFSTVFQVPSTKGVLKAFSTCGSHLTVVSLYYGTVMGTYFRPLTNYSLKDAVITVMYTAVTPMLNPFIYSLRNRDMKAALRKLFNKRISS
# OR1A1 N109D, as listed by the source, stated change not applied: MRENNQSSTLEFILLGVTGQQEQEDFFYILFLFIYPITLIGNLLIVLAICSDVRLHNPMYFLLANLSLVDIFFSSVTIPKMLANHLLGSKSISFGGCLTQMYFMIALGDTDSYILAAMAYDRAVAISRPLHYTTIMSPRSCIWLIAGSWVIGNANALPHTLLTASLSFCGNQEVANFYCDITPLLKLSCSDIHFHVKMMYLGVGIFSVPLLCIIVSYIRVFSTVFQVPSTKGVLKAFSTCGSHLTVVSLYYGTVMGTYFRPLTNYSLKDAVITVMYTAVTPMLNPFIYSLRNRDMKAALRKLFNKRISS
# Changes are numbered by the printed parent chain. The entries are a selection whose mix differs from that of the whole data set. The calls were merged from several studies; some rest on single wells. This is one part of the list.
# Columns and labels:
# Settings in all cases: stereoisomer not certain
# [1] = system: T1, OR1A1
# T1 sequence (whole entry): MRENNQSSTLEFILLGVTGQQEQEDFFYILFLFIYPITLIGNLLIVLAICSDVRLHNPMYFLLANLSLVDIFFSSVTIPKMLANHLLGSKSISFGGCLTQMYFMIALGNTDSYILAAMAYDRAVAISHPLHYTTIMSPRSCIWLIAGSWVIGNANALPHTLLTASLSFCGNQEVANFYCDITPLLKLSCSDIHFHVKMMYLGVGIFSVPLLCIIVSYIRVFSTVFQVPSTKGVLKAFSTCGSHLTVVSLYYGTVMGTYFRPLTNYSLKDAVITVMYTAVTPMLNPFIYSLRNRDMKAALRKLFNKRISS
# Summary of the method: (§1)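 Each receptor–molecule pair is labelled responsive or non-responsive (inactive) according to whether the original authors judged the measured signal statistically different from baseline. The data were taken from the main text and supplementary material of published papers and checked for typos and inconsistencies. Assay methods differed by source, with transient luciferase assays in mammalian cell lines being common.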
# [2] = system: T2, OR1A1; remark: listed apart in the source
# T2 sequence (whole entry): T1 sequence (whole entry) with H128R, V233M
# Summary of the method: as §1
# [3] = system: OR1A1 G152A
# Summary of the method: as §1
# [4] = system: OR1A1 I205V
# Summary of the method: as §1
# [5] = system: OR1A1 N109D
# Summary of the method: as §1
# [6] = system: OR1A1 N109K
# Summary of the method: as §1
# [7] = system: OR1A1 N155S
# Summary of the method: as §1
# [8] = system: OR1A1 S112A
# Summary of the method: as §1
# [9] = system: OR1A1 S248F
# Summary of the method: as §1
# [10] = system: OR1A1 T277M
# Summary of the method: as §1
# [11] = system: OR1A1 T280A
# Summary of the method: as §1
# [12] = system: OR1A1 T280F
# Summary of the method: as §1
# [13] = system: OR1A1 T280M
# Summary of the method: as §1
# [14] = system: OR1A1 Y250F
# Summary of the method: as §1
# [15] = system: OR1A1 Y251F
# Summary of the method: as §1
# [16] = system: OR1A1 Y251M
# Summary of the method: as §1
# [17] = system: OR1A1 Y258F
# Summary of the method: as §1
# [18] = system: OR1A1 Y258M
# Summary of the method: as §1
# [19] = system: OR1A1 Y276F
# Summary of the method: as §1
# [20] = system: OR1A1 Y276L
# Summary of the method: as §1
# 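Also: active if original authors judged signal statistically different from baseline.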
compound,measurement,setting,value
CC1=CCC(C(C)(C)O)CC1 (stereo not given),odorant receptor agonist call,[1],inactive
same,odorant receptor agonist call,[2],active
COc1cc(C=O)ccc1O,odorant receptor agonist call,[1],inactive
same,odorant receptor agonist call,[2],active
CC(C)C(=O)O,odorant receptor agonist call,[1],inactive
same,odorant receptor agonist call,[2],inactive
CCCCCCCC=O,odorant receptor agonist call,[1],inactive
same,odorant receptor agonist call,[2],inactive
c1cnccn1,odorant receptor agonist call,[1],inactive
same,odorant receptor agonist call,[2],inactive
CCCCCOC(C)=O,odorant receptor agonist call,[1],inactive
same,odorant receptor agonist call,[2],inactive
CC(C)C=O,odorant receptor agonist call,[1],inactive
same,odorant receptor agonist call,[2],inactive
CC12CCC(C1)C(C)(C)C2=O (stereo not given),odorant receptor agonist call,[1],inactive
same,odorant receptor agonist call,[2],inactive
C=CCc1ccc(OC(C)=O)c(OC)c1,odorant receptor agonist call,[1],inactive
same,odorant receptor agonist call,[2],inactive
COc1ccccc1O,odorant receptor agonist call,[1],inactive
same,odorant receptor agonist call,[2],active
COC(=O)c1ccccc1,odorant receptor agonist call,[1],inactive
same,odorant receptor agonist call,[2],inactive
CC12C=CCC1C1CCC3CC(=O)CCC3(C)C1CC2 (stereo not given),odorant receptor agonist call,[1],inactive
same,odorant receptor agonist call,[2],inactive
CCCCCC(C)=O,odorant receptor agonist call,[1],inactive
same,odorant receptor agonist call,[2],active
CC(=O)OC(C)(C)C1CC=C(C)CC1 (stereo not given),odorant receptor agonist call,[1],active
same,odorant receptor agonist call,[2],active
CC(=O)OC1CC2CCC1(C)C2(C)C (stereo not given),odorant receptor agonist call,[1],inactive
same,odorant receptor agonist call,[2],inactive
C=C(C)C1CC=C(C)C(=O)C1 (stereo not given),odorant receptor agonist call,[3],active
same,odorant receptor agonist call,[4],active
same,odorant receptor agonist call,[5],inactive
same,odorant receptor agonist call,[6],inactive
same,odorant receptor agonist call,[7],active
same,odorant receptor agonist call,[8],inactive
same,odorant receptor agonist call,[9],active
same,odorant receptor agonist call,[10],active
same,odorant receptor agonist call,[11],active
same,odorant receptor agonist call,[12],inactive
same,odorant receptor agonist call,[13],active
same,odorant receptor agonist call,[14],active
same,odorant receptor agonist call,[15],active
same,odorant receptor agonist call,[16],inactive
same,odorant receptor agonist call,[17],inactive
same,odorant receptor agonist call,[18],inactive
same,odorant receptor agonist call,[19],active
same,odorant receptor agonist call,[20],inactive
same,odorant receptor agonist call,[1],active
same,odorant receptor agonist call,[2],active
CCCCCCCCCC=O,odorant receptor agonist call,[1],inactive
same,odorant receptor agonist call,[2],active
C=CCc1ccc(OC)c(OC)c1,odorant receptor agonist call,[1],inactive
same,odorant receptor agonist call,[2],active
CC(C)CCC(=O)O,odorant receptor agonist call,[1],inactive
same,odorant receptor agonist call,[2],inactive
O=C1CCCCC1,odorant receptor agonist call,[1],inactive
same,odorant receptor agonist call,[2],inactive
CC12C=CCC1C1CCC3=CC(=O)CCC3(C)C1CC2 (stereo not given),odorant receptor agonist call,[1],inactive
same,odorant receptor agonist call,[2],inactive
CCCCCCCOC(C)=O,odorant receptor agonist call,[1],inactive
same,odorant receptor agonist call,[2],inactive
C=CCSCC=C,odorant receptor agonist call,[1],inactive
same,odorant receptor agonist call,[2],active
CCCCCCCC=CC=O,odorant receptor agonist call,[1],inactive
same,odorant receptor agonist call,[2],active
COC(=O)c1ccccc1O,odorant receptor agonist call,[1],inactive
same,odorant receptor agonist call,[2],inactive
CCCCCCCCOC(C)=O,odorant receptor agonist call,[1],inactive
same,odorant receptor agonist call,[2],inactive
C=C(C)C1CCC2=CC(=O)CC(C)C2(C)C1 (stereo not given),odorant receptor agonist call,[2],active
O=CCc1ccccc1,odorant receptor agonist call,[1],inactive
same,odorant receptor agonist call,[2],inactive
CC(=O)C(C)=O,odorant receptor agonist call,[1],inactive
same,odorant receptor agonist call,[2],active
COc1cc(C)ccc1O,odorant receptor agonist call,[1],inactive
same,odorant receptor agonist call,[2],inactive
CC(C)(O)CCCC1=CCC(C=O)CC1 (stereo not given),odorant receptor agonist call,[2],active
C=CC(C)(O)CCC=C(C)C (stereo not given),odorant receptor agonist call,[1],inactive
same,odorant receptor agonist call,[2],inactive
CCCCCC(=O)O,odorant receptor agonist call,[1],inactive
same,odorant receptor agonist call,[2],inactive
CC(=O)OCC=C(C)CCC=C(C)C,odorant receptor agonist call,[1],inactive
same,odorant receptor agonist call,[2],inactive
CCC1(O)C2(C)CCC(C2)C1(C)C (stereo not given),odorant receptor agonist call,[1],inactive
same,odorant receptor agonist call,[2],active
CCCCCCOC(=O)CCC,odorant receptor agonist call,[1],inactive
same,odorant receptor agonist call,[2],inactive
CC1COCc2cc3c(cc21)C(C)(C)C(C)C3(C)C (stereo not given),odorant receptor agonist call,[1],active
same,odorant receptor agonist call,[2],inactive
CCCCO,odorant receptor agonist call,[1],inactive
same,odorant receptor agonist call,[2],inactive
O=C1CCCCCCCCCCCCCCO1,odorant receptor agonist call,[1],inactive
same,odorant receptor agonist call,[2],inactive
CCC=CCCO,odorant receptor agonist call,[1],inactive
same,odorant receptor agonist call,[2],inactive
CC(C)(C)c1ccc(CCC=O)cc1,odorant receptor agonist call,[1],inactive
same,odorant receptor agonist call,[2],inactive
CC(C)=CCCC(C)=CC=O,odorant receptor agonist call,[1],inactive
same,odorant receptor agonist call,[2],active
CCCCCCCCCCC=O,odorant receptor agonist call,[1],inactive
same,odorant receptor agonist call,[2],active
CC(C)CC(=O)O,odorant receptor agonist call,[1],inactive
same,odorant receptor agonist call,[2],active
CC=Cc1ccc(O)c(OC)c1,odorant receptor agonist call,[1],active
same,odorant receptor agonist call,[2],active
CC1=NC(C)SC1C (stereo not given),odorant receptor agonist call,[1],inactive
same,odorant receptor agonist call,[2],inactive
c1ccc(Oc2ccccc2)cc1,odorant receptor agonist call,[1],inactive
same,odorant receptor agonist call,[2],active
CC12CCC(CC1)C(C)(C)O2,odorant receptor agonist call,[1],inactive
same,odorant receptor agonist call,[2],inactive
O=C1CCCCCCCCCCCC(=O)OCCO1,odorant receptor agonist call,[1],inactive
same,odorant receptor agonist call,[2],inactive
CC1CCC(C(C)C)C(O)C1 (stereo not given),odorant receptor agonist call,[1],active
same,odorant receptor agonist call,[2],active
CC(=O)c1ccccc1,odorant receptor agonist call,[1],inactive
same,odorant receptor agonist call,[2],active
CCCC(=O)O,odorant receptor agonist call,[1],inactive
same,odorant receptor agonist call,[2],active

# Shown with tabs: part of the list above
compound	measurement	setting	value
CCC=CCCO	odorant receptor agonist call	[1]	inactive
same	odorant receptor agonist call	[2]	inactive

# An excerpt of these results, bar-delimited.
compound | measurement | setting | value
C=C(C)C1CC=C(C)C(=O)C1 (stereo not given) | odorant receptor agonist call | [19] | active
same | odorant receptor agonist call | [20] | inactive
same | odorant receptor agonist call | [1] | active
same | odorant receptor agonist call | [2] | active
CCCCCCCCCC=O | odorant receptor agonist call | [1] | inactive
